The assay can be described thus: qHTS Assay for Lipid Storage Modulators in Drosophila S3 Cells.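 On cell number change: cells counted by Cell Tracker Red CMTPX staining in the red channel.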 The settings on record: BODIPY lipid droplet fluorescence, 18-24 h; for cell number change: measured here: cell count max response, cells fed with added oleic acid. The essentials: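 Laser-scanning cytometry quantifies lipid droplet accumulation (500–530 nm total intensity; droplet/cell object ratio) in oleic acid-fed (400 uM added) Drosophila S3 cells treated with a concentration series. 20 uM Triacsin C defined 100% inhibition.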

Where [1] appears, read: measured here: lipid fluorescence (Fed channel) AC50, cells fed with added oleic acid.
The mark [2] stands for this setting: measured here: cell number channel AC50, cells fed with added oleic acid.

This is one part of the list. These are further read-outs of the screen, such as a control signal, another cell line or another target. No call is given for them. Compounds called inactive in the main read-out are mostly missing here. The note in brackets gives the kind of curve behind each potency; many fits are weak.

The values below come from PubChem BioAssay AID2685 (National Center for Advancing Translational Sciences (NCATS), 2010).

As for `O=c1c2c3nc4ccccc4nc3n(CC3CCCO3)c2ncn1CCc1ccccc1` (centres undefined), the cell number change was -6.43%. For the same compound, the AC50 (usually the concentration at which the activity in the assay is half-maximal) under setting [1] was 4.11 µM [rising, single point].
Consider `O=C(O)c1ccc(NCc2cccnc2)c([N+](=O)[O-])c1`, for which the cell number change came to 30.1%. Besides, under setting [2], the AC50 is 32.6 µM [rising, single point].
As to `CN(CC(=O)OCC(=O)Nc1ccccc1)S(=O)(=O)c1ccc(Cl)cc1`, the cell number change was -19.8%. The AC50 under setting [1] is 23.1 µM [falling, single point].
On to `O=C1c2ccccc2NC(c2ccc(-c3cccs3)o2)N1O` (centres undefined), for which the cell number change was -6.78%. Moreover, the half-maximal activity concentration (AC50) under setting [1] was 1.16 µM [rising, partial curve, poor fit].
Regarding `CC(C)OC(=O)CSc1nnc(-c2ccc(O)cc2)n1Cc1ccccc1`, the cell number change stood at 29.7%.
Take `Cc1cc(C)cc(C(=O)N[C@@H](C)C(=O)N2CCC3(CC2)NCCc2[nH]cnc23)c1`: under setting [1], the concentration at half-maximal activity (AC50) is 0.116 µM [rising, single point].
As for `N#Cc1nc(Cc2cccc3ccccc23)oc1N1CCN(c2ccccc2)CC1`, the cell number change was found to be 24.3%. Also, the AC50 under setting [2] is 0.58 µM [rising, full curve].
As for `C/C(=N\NC(=O)c1c(C)nc2ccccn12)c1cccc([N+](=O)[O-])c1`, the cell number change came out at 21.6%. Also, the AC50 under setting [1] is 0.146 µM [rising, full curve, poor fit].
Consider `COc1ccc(S(=O)(=O)N(CC(=O)NCCCN(C)C)c2ccc(C)cc2)cc1OC`, for which the cell number change is -7.37%.
The same measure, in the same setting: the result for `COC(C(=O)Nc1ccnn1C1CCN(Cc2ccc(Cl)s2)CC1)c1ccccc1` (centres undefined) reads -20.2%.
Turning to `C=CCOc1nc2c(c(=O)n(C)c(=O)n2C)n1Cc1ccc(Cl)cc1`, the cell number change was -32.3%. Besides, under setting [2], the AC50 was 9.2 µM [falling, partial curve, poor fit]. For the same compound, the AC50 under setting [1] is 13 µM [falling, partial curve].
With `COc1ccc2c(C)nc(Nc3nc(-c4ccccc4)cc(=O)[nH]3)nc2c1`, the cell number change is -61.6%. In addition, the AC50 under setting [2] is 5.17 µM [falling, full curve]. Also, the AC50 under setting [1] was 4.61 µM [falling, full curve].
Turning to `OC(CNCCCCNCC(O)C(F)(F)F)C(F)(F)F` (centres undefined), the cell number change came to 23.2%. Besides, under setting [1], the AC50 was 3.55 µM [rising, partial curve].
For `COc1ccc(C(=O)NCc2nnc(SCC(=O)NC3CCCC3)o2)cc1`, the cell number change was -5.77%. In addition, the AC50 under setting [1] was 7.31 µM [rising, partial curve].
For `Cc1cc(C)c(C)c(OCC(=O)N2CCOCC2)c1`, the cell number change was 66.9%. The AC50 under setting [2] is 23.1 µM [rising, single point].
For `Cc1ccc(C(=O)NNC(=S)Nc2cccc(Cl)c2Cl)cc1[N+](=O)[O-]`, the cell number change was 46.9%. The AC50 under setting [2] was 0.116 µM [rising, full curve].
Turning to `CC(=O)Oc1ccccc1C(=O)N1CCN(S(=O)(=O)c2ccc3ccccc3c2)CC1`, the cell number change stood at 29%. For the same compound, the concentration at half-maximal activity (AC50) under setting [1] was 0.82 µM [rising, full curve].
For the compound `CCOC(=O)c1c(CN2CCC(C)CC2)n(C)c2cc(Br)c(OC)cc12`, the cell number change turned out to be 0.775%. Under setting [2], the AC50 is 0.517 µM [rising, full curve, poor fit]. In addition, under setting [1], the AC50 is 1.84 µM [rising, partial curve].
As to `CNS(=O)(=O)c1cc(Nc2ncnc3sccc23)ccc1C`, the cell number change is -1.05%. Also, the AC50 under setting [1] is 0.92 µM [rising, partial curve].
In the case of `COc1ccc(NC(=O)CN2c3cccc4cccc(c34)S2(=O)=O)c(OC)c1`, the cell number change is 60.8%. For the same compound, under setting [2], the concentration at half-maximal activity (AC50) was 0.291 µM [rising, full curve, poor fit]. In addition, the half-maximal activity concentration (AC50) under setting [1] was 18.4 µM [rising, partial curve].
For the compound `CC(=O)N1CCN(C(=O)c2cc(S(=O)(=O)NCc3ccccc3)ccc2C)CC1`, the cell number change is 19.4%.
In the case of `COC(CNC(=O)c1cccnc1)OC`, the cell number change is -6.94%. Moreover, the concentration at half-maximal activity (AC50) under setting [1] is 0.517 µM [falling, full curve, poor fit].
In the case of `CCOC(=O)c1c(-c2ccc(C)cc2)csc1NC(=O)C1CCCO1` (centres undefined), the AC50 under setting [1] was 0.731 µM [falling, partial curve, poor fit].
Regarding `O=C(Cc1ccc2c(c1)OCCO2)Nc1cccc(S(=O)(=O)N2CCOCC2)c1`, the cell number change is -1.29%. Moreover, the AC50 under setting [1] is 4.11 µM [falling, partial curve, poor fit].
In the case of `O=C(CCC(=O)NNC(=O)Nc1cccc(Cl)c1)NCc1ccccc1`, the cell number change is 24.2%.
Consider `COc1cc2[nH]c(=O)c(C(=O)NCCCN3CCCCC3)c(O)c2cc1OC`, for which the cell number change was -67.4%. In addition, the AC50 under setting [2] is 29.1 µM [falling, single point].
For `CCN(C(=O)Nc1ccccc1OC)c1c(N)n(Cc2ccccc2)c(=O)[nH]c1=O`, the cell number change is -46.8%.
Take `Cc1nnc(SCc2ccc(F)cc2)s1`: the AC50 under setting [1] is 1.16 µM [falling, single point].
As for `Cn1c(CN2CCOCC2)nnc1SCC(=O)Nc1cccc(C(F)(F)F)c1`, the cell number change amounted to 0.87%. For the same compound, the AC50 under setting [1] is 29.1 µM [rising, single point].
Take `CCCCNC(=O)c1ccccc1NS(=O)(=O)c1ccc2c(c1)OCCO2`: the cell number change was 40.2%. Under setting [2], the AC50 was 25.9 µM [rising, single point].
In the case of `COc1ccc(N(CC(=O)Nc2ccccc2F)S(=O)(=O)c2ccc(OC)c(OC)c2)cc1`, the cell number change is -5.87%. In addition, the AC50 under setting [1] was 18.4 µM [falling, single point].
For `O=C(COC(=O)CNC(=O)C1CCCCC1)Nc1ccc(Br)cc1Br`, the cell number change worked out at 2.12%. Besides, under setting [2], the AC50 was 6.51 µM [falling, single point]. For the same compound, under setting [1], the AC50 is 6.51 µM [falling, single point].
With `Cc1ccc(-n2c(SCc3ccc([N+](=O)[O-])cc3)nc3ccccc3c2=O)cc1`, the cell number change is 1.52%. The AC50 under setting [2] is 1.64 µM [falling, partial curve].
Take `O=C(CN1C(=O)c2ccccc2C1=O)N1CCOCC1`: the cell number change is -3.17%. Also, the AC50 under setting [1] is 4.11 µM [falling, partial curve, poor fit].
Take `CC(Sc1nnnn1-c1ccccc1)C(=O)NC1CCCC1` (centres undefined): the cell number change is 5.08%. The AC50 under setting [1] is 16.4 µM [falling, single point].
On to `CCOC(=O)c1ccc(Oc2c(C)oc3c(CN4CCN(C)CC4)c(O)ccc3c2=O)cc1`, for which the cell number change is 0.563%. Besides, the half-maximal activity concentration (AC50) under setting [1] was 0.731 µM [falling, full curve, poor fit].
On to `CCCCCc1nnc(NC(=O)C2=COCCO2)s1`, for which the cell number change was -97.2%. Besides, the AC50 under setting [2] is 23.1 µM [falling, single point]. For the same compound, under setting [1], the AC50 was 25.9 µM [falling, single point].
Take `Cc1csc(NC(=O)CSc2nnc(NC(=O)COc3ccccc3)s2)n1`: under setting [2], the concentration at half-maximal activity (AC50) is 0.58 µM [rising, single point].
Turning to `CC(C)C(Nc1ccc(C(F)(F)F)cc1[N+](=O)[O-])C(=O)O` (centres undefined), the cell number change was -10.4%. For the same compound, under setting [1], the AC50 is 29.1 µM [falling, partial curve, poor fit].
